{"source": "the supplement of paper PMC8728848", "binders": {"B1": {"name": "Endo180d1-D4 (Homo sapiens), Q9UBG0 (protein)", "chain": "MGPGRPAPAPWPRHLLRCVLLLGCLHLGRPGAPGDAALPEPNVFLIFSHGLQGCLEAQGGQVRVTPACNTSLPAQRWKWVSRNRLFNLGTMQCLGTGWPGTNTTASLGMYECDREALNLRWHCRTLGDQLSLLLGARTSNISKPGTLERGDQTRSGQWRIYGSEEDLCALPYHEVYTIQGNSHGKPCTIPFKYDNQWFHGCTSTGREDGHLWCATTQDYGKDERWGFCPIKSNDCETFWDKDQLTDSCYQFNFQSTLSWREAWASCEQQGADLLSITEIHEQTYINGLLTGYSSTLWIGLNDLDTSGGWQWSDNSPLKYLNWESDQPDNPSEENCGVIRTESSGGWQNRDCSIALPYVCKKKPNATAEPTPPDRWANVKVECEPSWQPFQGHCYRLQAEKRSWQESKKACLRGGGDLVSIHSMAELEFITKQIKQEVEELWIGLNDLKLQMNFEWSDGSLVSFTHWHPFEPNNFRDSLEDCVTIWGPEGRWNDSPCNQSLPSICKKAGQLSQGAAEEDHGCRKGWTWHSPSCYWLGEDQVTYSEARRLCTDHGSQLVTITNRFEQAFVSSLIYNWEGEYFWTALQDLNSTGSFFWLSGDEVMYTHWNRDQPGYSRGGCVALATGSAMGLWEVKNCTSFRARYICRQSLGTPVTPELPGPDPTPSLTGSCPQGWASDTKLRYCYKVFSSERLQDKKSWVQAQGACQELGAQLLSLASYEEEHFVANMLNKIFGESEPEIHEQHWFWIGLNRRDPRGGQSWRWSDGVGFSYHNFDRSRHDDDDIRGCAVLDLASLQWVAMQCDTQLDWICKIPRGTDVREPDDSPQGRREWLRFQEAEYKFFEHHSTWAQAQRICTWFQAELTSVHSQAELDFLSHNLQKFSRAQEQHWWIGLHTSESDGRFRWTDGSIINFISWAPGKPRPVGKDKKCVYMTASREDWGDQRCLTALPYICKRSNVTKETQPPDLPTTALGGCPSDWIQFLNKCFQVQGQEPQSRVKWSEAQFSCEQQEAQLVTITNPLEQAFITASLPNVTFDLWIGLHASQRDFQWVEQEPLMYANWAPGEPSGPSPAPSGNKPTSCAVVLHSPSAHFTGRWDDRSCTEETHGFICQKGTDPSLSPSPAALPPAPGTELSYLNGTFRLLQKPLRWHDALLLCESHNASLAYVPDPYTQAFLTQAARGLRTPLWIGLAGEEGSRRYSWVSEEPLNYVGWQDGEPQQPGGCTYVDVDGAWRTTSCDTKLQGAVCGVSSGPPPPRRISYHGSCPQGLADSAWIPFREHCYSFHMELLLGHKEARQRCQRAGGAVLSILDEMENVFVWEHLQSYEGQSRGAWLGMNFNPKGGTLVWQDNTAVNYSNWGPPGLGPSMLSHNSCYWIQSNSGLWRPGACTNITMGVVCKLPRAEQSSFSPSALPENPAALVVVLMAVLLLLALLTAALILYRRRQSIERGAFEGARYSRSSSSPTEATEKNILVSDMEMNEQQE"}}, "experiment_in_all_cases": "glycan array binding signal (z-score within array); higher = stronger binding", "conditions_in_all_cases": "glycan notation: IUPAC condensed, linker removed", "key": {"[1]": {"target": "Neu5Ac(a2-3)Gal(b1-4)GlcNAc6S", "how_it_was_run": "(§1)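 From the Consortium for Functional Glycomics database, 3228 arrays were curated, keeping only those whose protein sequence was available. Binding is given as a within-array Z-score averaged across arrays sharing a protein sequence and across linkers. Negative Z-scores can be read as non-binding.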"}, "[2]": {"target": "Neu5Ac(a2-3)Gal(b1-4)[Fuc(a1-3)]GlcNAc", "how_it_was_run": "as §1"}, "[3]": {"target": "Neu5Ac(a2-3)Gal(b1-4)[Fuc(a1-3)]GlcNAc(b1-2)Man", "how_it_was_run": "as §1"}, "[4]": {"target": "Neu5Ac(a2-3)Gal(b1-4)[Fuc(a1-3)]GlcNAc(b1-3)Gal", "how_it_was_run": "as §1"}, "[5]": {"target": "Neu5Ac(a2-3)Gal(b1-4)[Fuc(a1-3)]GlcNAc(b1-3)Gal(b1-4)GlcNAc", "how_it_was_run": "as §1"}, "[6]": {"target": "Neu5Ac(a2-3)Gal(b1-4)[Fuc(a1-3)]GlcNAc(b1-3)Gal(b1-4)[Fuc(a1-3)]GlcNAc(b1-3)Gal(b1-4)[Fuc(a1-3)]GlcNAc", "how_it_was_run": "as §1"}, "[7]": {"target": "Neu5Ac(a2-3)Gal(b1-4)[Fuc(a1-3)]GlcNAc(b1-3)GalNAc", "how_it_was_run": "as §1"}, "[8]": {"target": "Neu5Ac(a2-3)Gal(b1-4)[Fuc(a1-3)]GlcNAc(b1-6)[Gal(b1-3)]GalNAc", "how_it_was_run": "as §1"}, "[9]": {"target": "Neu5Ac(a2-3)Gal(b1-4)[Fuc(a1-3)]GlcNAc(b1-6)[Neu5Ac(a2-3)Gal(b1-3)]GalNAc", "how_it_was_run": "as §1"}, "[10]": {"target": "Neu5Ac(a2-3)Gal(b1-4)[Fuc(a1-3)]GlcNAc6S", "how_it_was_run": "as §1"}, "[11]": {"target": "Neu5Ac(a2-3)Gal6S(b1-4)GlcNAc", "how_it_was_run": "as §1"}, "[12]": {"target": "Neu5Ac(a2-3)Gal6S(b1-4)[Fuc(a1-3)]GlcNAc", "how_it_was_run": "as §1"}, "Neu5Ac(a2-3)GalNAc": {"target": "Neu5Ac(a2-3)GalNAc", "how_it_was_run": "as §1"}, "[13]": {"target": "Neu5Ac(a2-3)GalNAc(b1-4)GlcNAc", "how_it_was_run": "as §1"}, "[14]": {"target": "Neu5Ac(a2-3)[GalNAc(b1-4)]Gal(b1-4)Glc", "how_it_was_run": "as §1"}, "[15]": {"target": "Neu5Ac(a2-3)[GalNAc(b1-4)]Gal(b1-4)GlcNAc", "how_it_was_run": "as §1"}, "[16]": {"target": "Neu5Ac(a2-3)[GalNAc(b1-4)]Gal(b1-4)GlcNAc(b1-3)GalNAc", "how_it_was_run": "as §1"}, "[17]": {"target": "Neu5Ac(a2-3)[Neu5Ac(a2-6)]GalNAc", "how_it_was_run": "as §1"}, "Neu5Ac(a2-6)Gal": {"target": "Neu5Ac(a2-6)Gal", "how_it_was_run": "as §1"}, "[18]": {"target": "Neu5Ac(a2-6)Gal(b1-3)GlcNAc(b1-3)[Gal(b1-4)GlcNAc(b1-6)]Gal(b1-4)Glc", "how_it_was_run": "as §1"}, "Neu5Ac(a2-6)Gal(b1-4)Glc": {"target": "Neu5Ac(a2-6)Gal(b1-4)Glc", "how_it_was_run": "as §1"}, "[19]": {"target": "Neu5Ac(a2-6)Gal(b1-4)GlcNAc", "how_it_was_run": "as §1"}}, "note": "The other results are listed elsewhere or left out."}
{"binder": "B1", "values": [{"measurement": "glycan array binding signal (z-score)", "setting": "[1]", "result": -0.397}, {"measurement": "glycan array binding signal (z-score)", "setting": "[2]", "result": -0.083}, {"measurement": "glycan array binding signal (z-score)", "setting": "[3]", "result": 0.902}, {"measurement": "glycan array binding signal (z-score)", "setting": "[4]", "result": -0.471}, {"measurement": "glycan array binding signal (z-score)", "setting": "[5]", "result": 0.016}, {"measurement": "glycan array binding signal (z-score)", "setting": "[6]", "result": -0.132}, {"measurement": "glycan array binding signal (z-score)", "setting": "[7]", "result": 1.09}, {"measurement": "glycan array binding signal (z-score)", "setting": "[8]", "result": 0.26}, {"measurement": "glycan array binding signal (z-score)", "setting": "[9]", "result": 0.407}, {"measurement": "glycan array binding signal (z-score)", "setting": "[10]", "result": -0.024}, {"measurement": "glycan array binding signal (z-score)", "setting": "[11]", "result": 1.4}, {"measurement": "glycan array binding signal (z-score)", "setting": "[12]", "result": 0.74}, {"measurement": "glycan array binding signal (z-score)", "setting": "Neu5Ac(a2-3)GalNAc", "result": -0.207}, {"measurement": "glycan array binding signal (z-score)", "setting": "[13]", "result": -0.55}, {"measurement": "glycan array binding signal (z-score)", "setting": "[14]", "result": -0.269}, {"measurement": "glycan array binding signal (z-score)", "setting": "[15]", "result": -0.248}, {"measurement": "glycan array binding signal (z-score)", "setting": "[16]", "result": -0.661}, {"measurement": "glycan array binding signal (z-score)", "setting": "[17]", "result": -0.29}, {"measurement": "glycan array binding signal (z-score)", "setting": "Neu5Ac(a2-6)Gal", "result": 0.241}, {"measurement": "glycan array binding signal (z-score)", "setting": "[18]", "result": -2.06}, {"measurement": "glycan array binding signal (z-score)", "setting": "Neu5Ac(a2-6)Gal(b1-4)Glc", "result": -0.339}, {"measurement": "glycan array binding signal (z-score)", "setting": "[19]", "result": -0.526}]}
